No constants are given. Whether binding was seen depends on the method and setting. In cells and extracts the contact can be indirect. Some entries that bind do so weakly or less than the wild type. Sequences can lack the tags named with a protein.
What was measured:
[1] = target: T1, MAX (MYC-associated factor X), mouse, endogenous (mouse (endogenous in mouse liver)), P28574; assay: co-IP; cholangiocytes isolated from CCA and control mouse liver, then western blotting; settings: remark: other sources report otherwise
[2] = target: T1, MAX (MYC-associated factor X), mouse, …; assay: co-IP; anti-MAX antibody, then western blotting; cytoplasm and nucleus from CCA and normal mouse liver; settings: remark: other sources report otherwise

binding [1]: binds | binding [2]: binds
B1: C-MYC, mouse, endogenous, P01108 1-454 (protein)
chain: MDFLWALETPQTATTMPLNVNFTNRNYDLDYDSVQPYFICDEEENFYHQQQQSELQPPAPSEDIWKKFELLPTPPLSPSRRSGLCSPSYVAVATSFSPREDDDGGGGNFSTADQLEMMTELLGGDMVNQSFICDPDDETFIKNIIIQDCMWSGFSAAAKLVSEKLASYQAARKDSTSLSPARGHSVCSTSSLYLQDLTAAASECIDPSVVFPYPLNDSSSPKSCTSSDSTAFSPSSDSLLSSESSPRASPEPLVLHEETPPTTSSDSEEEQEDEEEIDVVSVEKRQTPAKRSESGSSPSRGHSKPPHSPLVLKRCHVSTHQHNYAAPPSTRKDYPAAKRAKLDSGRVLKQISNNRKCSSPRSSDTEENDKRRTHNVLERQRRNELKRSFFALRDQIPELENNEKAPKVVILKKATAYILSIQADEHKLTSEKDLLRKRREQLKHKLEQLRNSGA

— article PMC10289747
